# Test results from PubChem BioAssay AID248 (DTP/NCI, 2004).
# The list does not hold the whole screen: it is rich in T/C values a quarter to a half above the control, in often repeated tests (any T/C) and in doses without a T/C. Further doses and runs are listed elsewhere. T/C: endpoint of the treated group in % of that of the vehicle group. Some doses have a count of surviving animals in place of a T/C: the source holds a T/C of zero for them, seemingly a mark for toxic or unscored doses. Some survivor counts are full or nearly so, which does not show that the dose was tolerated: the source hardly ever lists a survival T/C far under the control, and the zero likely stands for such cases as well. Counts of survivors are from the toxicity check (mostly the fifth day) where no day follows; animals may have died later. Schedule codes are those of the source, read here as Q, the interval in days (D) or hours (H), X, the number of doses. Some schedule codes hold Z or #, which are not explained here. Some structures stand for samples that the source files as different forms (salt, stereo form or complex); doses refer to the form tested. Signs of the kind (2×) count equal records among those shown. Some entries were tested several times; the results are listed from low to high. For survival time, this PubChem deposit counts one and a half times the control or more as active, and values a quarter to a half above the control carry no call in these data; other NCI protocols may use other cut-offs. Some T/C values are followed by the survivors on the day toxicity was checked, most often the fifth; without a count, all were alive then.
# System: L1210 leukemia ip in BDF1 mice, survival T/C
# Experiment: NCI In Vivo Anticancer Drug Screen. Data for tumor model L1210 Leukemia (intraperitoneal) in B6D2F1 (BDF1) mice
# Details: T/C endpoint: mean survival time, higher T/C = longer survival
# [1] = dose: 200.0 mg/kg/injection, schedule: Q01DX001 (ip), vehicle: saline
# [2] = dose: 200.0 mg/kg/injection, schedule: Q04DX003 (ip), vehicle: Klucel (hydroxypropylcellulose) (HPC)
# [3] = dose: 400.0 mg/kg/injection, schedule: Q01DX001 (ip), vehicle: saline
# [4] = dose: 400.0 mg/kg/injection, schedule: Q04DX003 (ip), vehicle: Klucel (hydroxypropylcellulose) (HPC)
# [5] = dose: 200.0 mg/kg/injection, schedule: Q01DX009 (ip), vehicle: saline
# [6] = dose: 100.0 mg/kg/injection, schedule: Q01DX009 (ip), vehicle: saline
# [7] = dose: 400.0 mg/kg/injection, schedule: Q04DX003 (ip), vehicle: saline
# [8] = dose: 200.0 mg/kg/injection, schedule: Q04DX003 (ip), vehicle: saline with Tween-80
# [9] = dose: 400.0 mg/kg/injection, schedule: Q04DX003 (ip), vehicle: saline with Tween-80
# [10] = dose: 400.0 mg/kg/injection, schedule: Q04DX002 (ip), vehicle: Klucel (hydroxypropylcellulose) (HPC)
smiles,measurement,setting,value
CCCCCCCCCCCCCCCC[N+](C)(C)C,survivor count,"dose: 8.0 mg/kg/injection, schedule: Q01DX015 (ip), vehicle: saline",1 of 6
same,survivor count,"dose: 8.75 mg/kg/injection, schedule: Q01DX009 (ip), vehicle: saline",2 of 6
same,survivor count,"dose: 15.0 mg/kg/injection, schedule: Q04DX003 (ip), vehicle: saline",3 of 6
same,survivor count,"dose: 16.0 mg/kg/injection, schedule: Q01DX015 (ip), vehicle: saline",0 of 6
same,survivor count,"dose: 17.0 mg/kg/injection, schedule: Q01DX009 (ip), vehicle: saline",5 of 6
same,survivor count,"dose: 17.5 mg/kg/injection, schedule: Q01DX009 (ip), vehicle: saline",1 of 6
same,survivor count,"dose: 25.0 mg/kg/injection, schedule: Q01DX009 (ip), vehicle: saline",1 of 6
same,survivor count,"dose: 30.0 mg/kg/injection, schedule: Q04DX003 (ip), vehicle: saline",2 of 6
same,survivor count,"dose: 35.0 mg/kg/injection, schedule: Q01DX009 (ip), vehicle: saline",0 of 6
same,survivor count,"dose: 50.0 mg/kg/injection, schedule: Q01DX001 (ip), vehicle: saline",2 of 6
same,survivor count,"dose: 55.0 mg/kg/injection, schedule: Q04DX003 (ip), vehicle: saline",2 of 6
same,survivor count,"dose: 80.0 mg/kg/injection, schedule: Q04DX003 (ip), vehicle: saline",0 of 6
same,survivor count,"dose: 100.0 mg/kg/injection, schedule: Q01DX001 (ip), vehicle: saline",0 of 6
same,survivor count,"dose: 100.0 mg/kg/injection, schedule: Q04DX003 (ip), vehicle: carboxymethylcellulose (CMC)",6 of 6
same,survivor count,[1],0 of 6
same,survivor count,[2],0 of 6
same,survivor count,[3],0 of 6
same,survivor count,[4],0 of 6
CCOc1nc(N)c(C(N)=O)cc1C#N,survivor count,"dose: 400.0 mg/kg/injection, schedule: Q04DX003 (ip), vehicle: saline sonified",0 of 6
C=C(Cl)CSC(=S)N(C)C,survivor count,[5],2 of 3
Clc1nc(N2CC2)nc(N2CC2)c1Br,survivor count,"dose: 1.0 mg/kg/injection, schedule: Q01DX Z (ip), vehicle: methylcellulose (MC)",0 of 6
same,survivor count,"dose: 3.0 mg/kg/injection, schedule: Q01DX Z (ip), vehicle: methylcellulose (MC)",0 of 6
same,survivor count,"dose: 6.0 mg/kg/injection, schedule: Q01DX Z (ip), vehicle: methylcellulose (MC)",0 of 6
same,survivor count,"dose: 12.0 mg/kg/injection, schedule: Q01DX Z (ip), vehicle: methylcellulose (MC)",0 of 6
same,survivor count,"dose: 25.0 mg/kg/injection, schedule: Q01DX Z (ip), vehicle: methylcellulose (MC)",0 of 6
same,survivor count,"dose: 50.0 mg/kg/injection, schedule: Q01DX Z (ip), vehicle: methylcellulose (MC)",0 of 6
same,survivor count,"dose: 100.0 mg/kg/injection, schedule: Q01DX Z (ip), vehicle: methylcellulose (MC)",0 of 6
same,survivor count,"dose: 200.0 mg/kg/injection, schedule: Q01DX Z (ip), vehicle: methylcellulose (MC)",0 of 6
C=CCOC(=S)S,survivor count,[3],0 of 6
CSc1sc2ccccc2[n+]1C,T/C,[6],127 and 128 % of control
same,survivor count,[5],0 of 6 and 3 of 6
same,survivor count,[7],1 of 6
CCCCN(CCCCS(=O)(=O)O)c1ccc(N=Nc2cc(Cl)ccc2Cl)cc1,survivor count,[4],1 of 6
CC(=O)Nc1c([N+](=O)[O-])cc2c3c(cccc13)C=C2,survivor count,"dose: 100.0 mg/kg/injection, schedule: Q01DX009 (ip), vehicle: saline with Tween-80",6 of 6
O=C(CC(=O)C(F)(F)F)c1csc2ccccc12,survivor count,[6],0 of 6
same,survivor count,"dose: 150.0 mg/kg/injection, schedule: Q04DX003 (ip), vehicle: acetone",2 of 6
same,survivor count,[1],1 of 6
same,survivor count,"dose: 225.0 mg/kg/injection, schedule: Q04DX003 (ip), vehicle: acetone",4 of 6
same,survivor count,"dose: 335.0 mg/kg/injection, schedule: Q04DX003 (ip), vehicle: acetone",0 of 6
same,survivor count,[3],0 of 6
CCCCCCC(C)CCCCCCCCNCCOC(=O)c1ccc(N)cc1 (configuration not stated),survivor count,"dose: 300.0 mg/kg/injection, schedule: Q01DX001 (ip), vehicle: saline",3 of 6
CN1CCN(C(=O)Nc2ccc(N=Nc3ccccc3)cc2)CC1,survivor count,"dose: 100.0 mg/kg/injection, schedule: Q04DX003 (ip), vehicle: Klucel (hydroxypropylcellulose) (HPC)",6 of 6
same,survivor count,[4],3 of 6
CCCCSP(=O)(N1CCCCC1)N1CCCCC1,survivor count,"dose: 200.0 mg/kg/injection, schedule: Q04DX002 (ip), vehicle: saline with Tween-80",1 of 3
same,survivor count,"dose: 400.0 mg/kg/injection, schedule: Q04DX002 (ip), vehicle: saline with Tween-80",0 of 3
CCCCCCCCCCCC(c1ccccc1)[N+](C)(C)Cc1ccccc1 (configuration not stated),survivor count,"dose: 4.0 mg/kg/injection, schedule: Q01DX015 (ip), vehicle: saline",2 of 6
same,survivor count,"dose: 5.0 mg/kg/injection, schedule: Q01DX001 (ip), vehicle: carboxymethylcellulose (CMC)",0 of 4
same,survivor count,"dose: 6.0 mg/kg/injection, schedule: Q01DX015 (ip), vehicle: saline",0 of 6
same,survivor count,"dose: 10.0 mg/kg/injection, schedule: Q01DX001 (ip), vehicle: carboxymethylcellulose (CMC)",1 of 4
same,survivor count,"dose: 20.0 mg/kg/injection, schedule: Q01DX001 (ip), vehicle: carboxymethylcellulose (CMC)",0 of 4
CCCCNC1=C(NC(=O)C(Cl)Cl)C(=O)c2ccccc2C1=O,survivor count,"dose: 20.0 mg/kg/injection, schedule: Q04DX003 (ip), vehicle: saline with Tween-80",3 of 6
same,survivor count,"dose: 100.0 mg/kg/injection, schedule: Q04DX003 (ip), vehicle: saline with Tween-80",0 of 6
same,survivor count,[8],0 of 6
same,survivor count,[9],0 of 6
O=[N+]([O-])c1ccc(S(=O)(=O)OCc2ccccc2OS(=O)(=O)c2ccc([N+](=O)[O-])cc2)cc1,survivor count,[2],6 of 6
same,survivor count,[4],6 of 6
CN(C(=O)C1C(C(=O)O)C2(Cl)C(Cl)=C(Cl)C1(Cl)C2(Cl)Cl)C1CCCCC1 (configuration not stated),survivor count,[10],3 of 3
c1cc(-c2ncc[nH]2)ccn1,survivor count,"dose: 200.0 mg/kg/injection, schedule: Q01DX001 (ip), vehicle: saline with Tween-80",1 of 3
same,survivor count,"dose: 400.0 mg/kg/injection, schedule: Q01DX001 (ip), vehicle: saline with Tween-80",0 of 3
OCC1OC(n2cnc3c(=S)nc(NO)[nH]c32)C(O)C1O (configuration not stated),T/C,"dose: 25.0 mg/kg/injection, schedule: Q01DX005 (ip), vehicle: saline",129 % of control
same,survivor count,"dose: 200.0 mg/kg/injection, schedule: Q01DX005 (ip), vehicle: saline",5 of 6
NNc1ccc(Br)cc1,survivor count,[10],1 of 3
O=NN(CS(=O)(=O)O)c1ccccc1,survivor count,[7],0 of 6
CC(/C=N\N)=N\N,survivor count,"dose: 60.0 mg/kg/injection, schedule: Q01DX Z (oral), vehicle: saline",6 of 6
same,survivor count,"dose: 120.0 mg/kg/injection, schedule: Q01DX Z (ip), vehicle: saline",4 of 6
same,survivor count,"dose: 120.0 mg/kg/injection, schedule: Q01DX Z (oral), vehicle: saline",1 of 6
O=C1CC(C(=O)O)C(C(=O)O)C1 (configuration not stated),survivor count,[3],2 of 6
FC(F)(F)c1nc2nc(Br)c(Br)nc2[nH]1,T/C,[8],138 % of control [5 of 6 alive]
same,T/C,[9],126 % of control [4 of 6 alive]
same,survivor count,[9],1 of 6 (2×)
same,survivor count,"dose: 600.0 mg/kg/injection, schedule: Q04DX003 (ip), vehicle: saline with Tween-80",0 of 6
NC(N)=N/N=C/C(=N\N=C(N)N)C(F)(F)F,survivor count,"dose: 480.0 mg/kg/injection, schedule: Q01DX Z (ip), vehicle: saline",0 of 6
